# In patent publication US20240092836A1:
# The chains behind the UniProt entries cited, without tags or fusion partners. Where a name states a change or a piece, a line headed by the entry shows the natural chain unless it says otherwise.
# UniProt P16410: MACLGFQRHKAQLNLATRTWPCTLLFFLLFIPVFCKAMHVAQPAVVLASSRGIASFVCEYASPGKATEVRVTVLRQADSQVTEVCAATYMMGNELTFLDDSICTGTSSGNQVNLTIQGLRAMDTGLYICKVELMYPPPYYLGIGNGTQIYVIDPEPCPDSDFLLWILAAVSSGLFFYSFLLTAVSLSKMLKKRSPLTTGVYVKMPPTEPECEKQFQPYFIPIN
# These are yes or no findings as the source states them, for the method shown. Some results given as binding are weak or reduced against the parent protein; the word gives no strength.
# Target: CTLA-4 expressed on the cell surface of CHO cells (Homo sapiens (Human)) (UniProt P16410)
# Experiment: FACS on CHO cells expressing CTLA-4; Geom. Mean against peptide concentration, log(uM)
binder,measurement,value
CMHPFLPIVSHHFCER [No. #19 synthetic peptide used in FACS],binding,binds
